Laboratory results as given in US20050053985A1.
No constants are given. Whether binding was seen depends on the method and setting. Binding seen in cells or lysates may run through a third protein. Some results given as binding are weak or reduced against the parent protein; the word gives no strength. Sequences can lack the tags named with a protein.

Columns and labels:
Symplekin (human) [1] = target: T1, Symplekin (human) (UniProt Q92797); experiment: co-purification with the His-Flag-tagged bait from stable 293 cells (anti-Flag beads, then Ni beads); SDS-PAGE, Western blot with anti-Symplekin antibody
T1 sequence (looked up): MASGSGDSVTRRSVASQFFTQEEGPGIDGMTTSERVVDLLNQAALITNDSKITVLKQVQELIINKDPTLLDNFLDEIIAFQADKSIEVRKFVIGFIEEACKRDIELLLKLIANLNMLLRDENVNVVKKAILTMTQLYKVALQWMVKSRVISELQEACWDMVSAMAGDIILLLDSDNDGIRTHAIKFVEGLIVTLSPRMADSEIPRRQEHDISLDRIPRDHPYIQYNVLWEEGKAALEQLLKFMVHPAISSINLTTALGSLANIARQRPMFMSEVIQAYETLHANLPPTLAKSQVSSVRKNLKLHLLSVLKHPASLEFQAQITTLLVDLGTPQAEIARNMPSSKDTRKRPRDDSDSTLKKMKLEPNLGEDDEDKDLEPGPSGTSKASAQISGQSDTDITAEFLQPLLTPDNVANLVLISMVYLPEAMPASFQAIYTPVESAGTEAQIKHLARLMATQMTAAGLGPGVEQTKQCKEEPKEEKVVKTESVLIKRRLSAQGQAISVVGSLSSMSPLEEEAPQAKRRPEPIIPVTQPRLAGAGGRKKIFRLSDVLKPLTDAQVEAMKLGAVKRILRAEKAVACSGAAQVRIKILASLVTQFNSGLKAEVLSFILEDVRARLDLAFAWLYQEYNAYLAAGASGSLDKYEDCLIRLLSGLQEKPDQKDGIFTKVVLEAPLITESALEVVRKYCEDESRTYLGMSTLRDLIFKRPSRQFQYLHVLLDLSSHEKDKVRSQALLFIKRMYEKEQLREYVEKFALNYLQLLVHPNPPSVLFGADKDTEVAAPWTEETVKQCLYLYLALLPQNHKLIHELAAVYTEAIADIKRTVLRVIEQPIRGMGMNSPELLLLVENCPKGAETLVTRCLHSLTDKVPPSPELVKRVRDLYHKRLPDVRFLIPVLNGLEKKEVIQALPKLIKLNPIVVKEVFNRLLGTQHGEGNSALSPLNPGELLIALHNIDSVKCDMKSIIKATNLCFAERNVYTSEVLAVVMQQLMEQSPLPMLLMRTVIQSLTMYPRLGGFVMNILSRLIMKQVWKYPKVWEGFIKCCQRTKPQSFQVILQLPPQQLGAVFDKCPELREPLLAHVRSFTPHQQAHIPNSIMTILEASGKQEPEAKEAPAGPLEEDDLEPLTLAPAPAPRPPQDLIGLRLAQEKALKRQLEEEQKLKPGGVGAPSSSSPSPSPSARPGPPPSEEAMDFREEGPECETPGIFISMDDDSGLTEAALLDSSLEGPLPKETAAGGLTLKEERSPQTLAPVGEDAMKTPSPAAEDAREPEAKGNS

Symplekin (human) [2] = target: T1, Symplekin (human); experiment: co-purification (anti-Flag then Ni beads), SDS-PAGE, Western blot
HsSen15 (human) = target: T2, HsSen15 (human) (UniProt Q8WW01); experiment: co-purification with the His-Flag-tagged bait from stable 293 cells (anti-Flag beads, then Ni beads); SDS-PAGE, silver staining
T2 sequence (looked up): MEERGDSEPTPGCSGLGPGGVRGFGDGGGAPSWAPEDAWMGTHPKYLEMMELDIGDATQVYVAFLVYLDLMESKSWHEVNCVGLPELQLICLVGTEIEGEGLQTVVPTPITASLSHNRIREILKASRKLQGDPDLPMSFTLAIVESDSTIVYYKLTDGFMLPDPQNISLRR

HsSen54 (human) = target: T3, HsSen54 (human) (UniProt Q7Z6J9); experiment: as above
T3 sequence (looked up): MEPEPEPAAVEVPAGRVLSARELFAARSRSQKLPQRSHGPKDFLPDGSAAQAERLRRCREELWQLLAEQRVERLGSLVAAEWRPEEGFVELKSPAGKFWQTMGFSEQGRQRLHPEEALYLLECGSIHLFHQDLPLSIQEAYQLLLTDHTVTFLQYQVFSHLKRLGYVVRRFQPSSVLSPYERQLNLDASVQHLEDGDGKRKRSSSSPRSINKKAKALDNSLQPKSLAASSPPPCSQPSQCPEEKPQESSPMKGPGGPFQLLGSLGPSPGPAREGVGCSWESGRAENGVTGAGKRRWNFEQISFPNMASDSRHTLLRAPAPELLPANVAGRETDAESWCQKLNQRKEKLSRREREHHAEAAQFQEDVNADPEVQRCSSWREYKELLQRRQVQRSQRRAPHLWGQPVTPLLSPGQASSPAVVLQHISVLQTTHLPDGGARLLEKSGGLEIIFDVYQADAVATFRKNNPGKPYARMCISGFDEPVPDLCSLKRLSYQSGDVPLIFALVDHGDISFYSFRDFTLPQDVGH

HsSen2 (human) = target: T4, HsSen2 (human) (UniProt Q8NCE0); experiment: as above
T4 sequence (looked up): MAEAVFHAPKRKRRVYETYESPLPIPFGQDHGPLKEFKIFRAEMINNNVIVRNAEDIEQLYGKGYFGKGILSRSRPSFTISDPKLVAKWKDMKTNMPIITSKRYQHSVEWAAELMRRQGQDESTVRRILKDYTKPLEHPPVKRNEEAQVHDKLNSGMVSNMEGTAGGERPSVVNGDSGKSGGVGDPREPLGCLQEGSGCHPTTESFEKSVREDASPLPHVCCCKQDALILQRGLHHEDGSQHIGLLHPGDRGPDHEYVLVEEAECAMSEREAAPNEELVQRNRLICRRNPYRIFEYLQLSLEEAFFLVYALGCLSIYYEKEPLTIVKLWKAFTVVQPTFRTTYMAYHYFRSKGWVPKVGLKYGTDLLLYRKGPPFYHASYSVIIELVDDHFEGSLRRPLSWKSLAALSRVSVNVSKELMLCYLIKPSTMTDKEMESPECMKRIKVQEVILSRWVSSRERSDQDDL

Measured: binding

B1: His-Flag-HsClp1 (protein, human, UniProt Q92989 1-425, looked up, not shown: small tags and cut ends)
chain: MGEEANDDKKPTTKFELERETELRFEVEASQSVQLELLTGMAEIFGTELTRNKKFTFDAGAKVAVFTWHGCSVQLSGRTEVAYVSKDTPMLLYLNTHTALEQMRRQAEKEEERGPRVMVVGPTDVGKSTVCRLLLNYAVRLGRRPTYVELDVGQGSVSIPGTMGALYIERPADVEEGFSIQAPLVYHFGSTTPGTNIKLYNKITSRLADVFNQRCEVNRRASVSGCVINTCGWVKGSGYQALVHAASAFEVDVVVVLDQERLYNELKRDLPHFVRTVLLPKSGGVVERSKDFRRECRDERIREYFYGFRGCFYPHAFNVKFSDVKIYKVGAPTIPDSCLPLGMSQEDNQLKLVPVTPGRDMVHHLLSVSTAEGTEENLSETSVAGFIVVTSVDLEHQVFTVLSPAPRPLPKNFLLIMDIRFMDLK
binds: all assays above
